Test results published in article PMC10279913.
Results are given in words; binding and its absence hold for the method and conditions named. Binding seen in cells or lysates may run through a third protein. A yes stands for co-enrichment or nearness to the bait. Other partners may have been found.

Sequences of proteins named here, by UniProt entry; tags and fusion partners are left off. A change or cut given only in a name is not applied to a line headed by its entry.
UniProt Q9N536: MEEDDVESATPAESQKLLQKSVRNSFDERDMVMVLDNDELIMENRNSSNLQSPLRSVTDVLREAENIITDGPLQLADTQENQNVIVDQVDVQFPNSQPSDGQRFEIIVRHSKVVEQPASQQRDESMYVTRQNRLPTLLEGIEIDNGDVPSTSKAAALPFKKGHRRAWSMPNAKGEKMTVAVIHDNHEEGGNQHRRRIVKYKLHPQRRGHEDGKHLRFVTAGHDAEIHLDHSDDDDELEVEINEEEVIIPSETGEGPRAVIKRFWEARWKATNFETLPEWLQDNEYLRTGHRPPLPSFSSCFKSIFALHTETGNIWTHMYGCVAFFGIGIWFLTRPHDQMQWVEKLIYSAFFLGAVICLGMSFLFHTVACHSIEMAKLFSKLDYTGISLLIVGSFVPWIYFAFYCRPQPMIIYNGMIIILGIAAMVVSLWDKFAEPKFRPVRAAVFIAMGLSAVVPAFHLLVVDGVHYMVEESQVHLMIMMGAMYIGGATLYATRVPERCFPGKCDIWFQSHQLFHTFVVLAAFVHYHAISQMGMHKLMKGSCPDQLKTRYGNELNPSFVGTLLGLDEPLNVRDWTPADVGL

Molecular target: HA::PAQR-2 (C. elegans) (UniProt Q9N536)
Test: affinity purification with mass spectrometry; anti-HA immunoprecipitation (rabbit mAb C29F4 + protein A-agarose, 1 h, 4 °C) from lysates of whole worms carrying HA::PAQR-2; 25 mM Tris pH 7.5, 300 mM NaCl, 0.1% NP-40, no protease inhibitor; eluted with 0.2 M glycine pH 2.5; 2 IPs; control: worms without HA-tagged protein

binding | Binder
binds | Dolichyl-diphosphooligosaccharide–protein glycosyltransferase subunit 1 (protein, UniProt Q9GZH4 16-586) EDAWKAANVDRTIDATSQIVKVSTLYSFENVGNGPQSKVLIALSKEESATLSFISAGIDGSKGKLKISEKPAEKDLAVYEVDLRTPVAKGAKVTIRINLRITQVLEPLPSKIQQSDSQFVVLHTSAYVPSLYETVTQKTTIRTTQGGKLLSATTVSPSKQETERVIYGPYVNIPAFETKPVKVHYENNSPFVIATIVERFIEVSHWGNIAVEEYIELVHKGAELDGPFSRIDYQMDRRGRRQPALQQFTTVLPAQAKDIYYRDEIGNISTSAVRIRADSVDVEIRPRFPLFGGWKTSYVIGYNLPSEEYLYSKGNQYALKTKLFDHVFNDIVVEKLRTKVLLPEHVKRVKVATPYAVDRRPEELKPTYLDTTGRLVLVLEKENIVPDHSQFFTVTYEFEFVDMLREPLLASAFFFSLFFVIIVYSRFDFTISSDPAKDAEERSQIILGNLAKSVDSKQSAYEDLIEASQQYKSTKNDADLQEAKKTFIAARNQENSTLTDKIATLKTDSGASAAEKASELLKYDKTVFDAVDNYLKAVEKSTTKTAGTEEQQFLNKVKDARNRADSVLASI
binds | Putative H/ACA ribonucleoprotein complex subunit 2-like protein (protein, UniProt Q9XXD4 1-163) MGKRNLDETMNESTVSEANGDATAPTTEKDEYQALCELVNPIAQPLANRKLAKKVYKLIKKASAGDKTLREGIKDVQKELRRNEKGICILAGNVSPIDVYSHIPGICEEKEIPYVYIPSREQLGLAVGHRRPSILIFVKPSGDFKELYDEVAEALRHLTVEAA
binds | 40S ribosomal protein S27 (protein, UniProt Q9TXP0 1-83) MPLAVDLLHPEPQREIRCHKLKRLVQHPNSYFMDVKCSGCFKISTVFSHATTVVVCVGCNTVLCQPTRGKAKLTEGCSFRKKQ
